Assay results: the supplement of paper PMC7877785
± gives the uncertainty stated by the source. Many entries were measured with a wide error.

Assay: self-splicing fitness, log relative to wild type (ln ratio); higher = more splicing; Tetrahymena group I intron in knt gene, E. coli kanamycin selection, DiMSum; sequences stand for … in CUCUCU…GGAGGGAAAAGUUAUCAGGCAUGCACCUGGUAGCUAGUCUUUAAACCAAUAGAUUGCAUCGGUUUAAAAGGCAAGACCGUCAAAUUGCGGGAAAGGGGUCAACAGCCGUUCAGUACCAAGUCUCAGGGGAAACUUUGAGAUGGCCUUGCAAAGGGUAUGGUAAUAAGCUGACGGACAUGGUCCUAACCACGCAGCCAAGUCCUAAGUCAACAGAUCUUCUGUUGAUAUGGAUGCAGUUCACAGACUAAAUGUCGGUCGGGGAAGAUGUAUUCUUCUCAUAAGAUAUAGUCGGACCUCUCCUUAAUGGGAGCUAGCGGAUGAAGUGAUGCAACACUGGAGCCGCUGGGAACUAAUUUGUAUGCGAAAGUAUAUUGAUUAGUUUUGGAGUACUCGUGGUCG
Procedure, shortened: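 Six replicate transformations of E. coli BL21(DE3) with a pET-22b(+) library were grown overnight at 37°C or 30°C. The library randomised all eight P1ex-region intron nucleotides, the intron lying in the knt kanamycin-resistance gene, and plates were LB agar with or without 25 μg/mL kanamycin plus 100 μg/mL carbenicillin, 50 μM IPTG and 0.2% rhamnose. Pooled colonies were amplicon-sequenced on an Illumina HiSeq 2500, and fitness is the DiMSum error-weighted combination of wild-type-normalised replicate fold changes, kanamycin versus none.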

Row | Sequence | self-splicing fitness (ln) (30 °C) | self-splicing fitness (ln) (37 °C)
1 | UUUAAGCAAUAUUACGCUGC | -1.27 ± 1 | -0.681 ± 1.4
2 | GCGUAGCAAUAUUACGCGAG | -4.09 ± 1 | -2.54 ± 0.27
3 | CGGGAGCAAUAUUACGGACA | -2.24 ± 0.69 | -2.61 ± 0.63
4 | CGGUAGCAAUAUUACGUUUC |  | -0.927 ± 1.2
5 | UAACAGCAAUAUUACGGCCC |  | -1.67 ± 0.67
6 | AGGGAGCAAUAUUACGAAGC |  | -1.33 ± 0.87
7 | CUUAAGCAAUAUUACGAGAU | -2.92 ± 0.22 | -1.59 ± 0.2
8 | GUUGAGCAAUAUUACGUGUA | -3 ± 0.21 | -3.87 ± 0.72
9 | CUCGAGCAAUAUUACGGCCU | -4.63 ± 0.6 | 
10 | UAUGAGCAAUAUUACGAAAA | 0.526 ± 1.1 | -2.08 ± 1.1
11 | AGAAAGCAAUAUUACGGUCU | -1.11 ± 0.082 | -0.58 ± 0.09
12 | GUAGAGCAAUAUUACGACGG |  | -1.45 ± 0.6
13 | UUAGAGCAAUAUUACGACUC |  | -2.56 ± 0.78
14 | AUCGAGCAAUAUUACGAGCC | -2.7 ± 0.76 | -0.735 ± 0.87
15 | CUGGAGCAAUAUUACGCUAG | -5.51 ± 0.58 | 
16 | UCGGAGCAAUAUUACGUUGU | -3.7 ± 0.22 | -1.93 ± 0.21
17 | CGCUAGCAAUAUUACGAGAU | -3.86 ± 0.19 | -3.36 ± 0.23
18 | UUCGAGCAAUAUUACGCUAC | -3.23 ± 1 | 
19 | CGCGAGCAAUAUUACGUUAC | -4.07 ± 0.28 | -1.78 ± 0.33
20 | CAAUAGCAAUAUUACGUGCU | -4.96 ± 0.72 | 
21 | UGACAGCAAUAUUACGGUGC |  | -1.18 ± 0.53
22 | CCGUAGCAAUAUUACGAGUA | -3.48 ± 0.52 | 
23 | CUAGAGCAAUAUUACGGCAC | -3.4 ± 0.6 | 

Row | Sequence | self-splicing fitness (ln) (30 °C) | self-splicing fitness (ln) (37 °C)
24 | AGAGAGCAAUAUUACGCCUG |  | -2.08 ± 1.1
25 | GCGUAGCAAUAUUACGUUCC | -4.08 ± 0.73 | 
26 | UUGUAGCAAUAUUACGCUGC | -2.43 ± 0.66 | -0.687 ± 0.59
27 | GCGGAGCAAUAUUACGGCUG |  | -2.61 ± 0.75
28 | CUCUAGCAAUAUUACGCCCA |  | -4.47 ± 1
29 | GUCGAGCAAUAUUACGUGGA | -3.34 ± 0.74 | 
30 | AAUGAGCAAUAUUACGAGGC | -4.13 ± 0.59 | -3.11 ± 0.4
31 | GCGAAGCAAUAUUACGACGC |  | -0.287 ± 0.92
32 | ACUGAGCAAUAUUACGCCGG |  | -2.48 ± 0.77
33 | GGCUAGCAAUAUUACGAAGG | -4.62 ± 0.73 | 
34 | CCCCAGCAAUAUUACGACCC |  | -2.02 ± 0.64
35 | UGUUAGCAAUAUUACGCUAC | -0.135 ± 1.2 | -0.595 ± 1
36 | GGGAAGCAAUAUUACGAAAA | -2.75 ± 0.57 | -3.41 ± 0.73
37 | CAUUAGCAAUAUUACGCACG | -0.832 ± 0.12 | 0.325 ± 0.14
38 | CCGUAGCAAUAUUACGUACU | -4.01 ± 0.74 | 
39 | CCUAAGCAAUAUUACGUCUG | -2.15 ± 0.2 | -2 ± 0.24
40 | UAGGAGCAAUAUUACGAUAU | -3.96 ± 0.33 | -2.46 ± 0.28
41 | UAGGAGCAAUAUUACGAGGA |  | -2.2 ± 0.55
42 | CGUGAGCAAUAUUACGAUGA | -3.64 ± 0.23 | -2.04 ± 0.17
43 | AUUUAGCAAUAUUACGCAAC |  | -2.52 ± 0.75
44 | ACAGAGCAAUAUUACGGGCC |  | -2.4 ± 0.54
45 | UUGGAGCAAUAUUACGGGCA | -2.31 ± 0.57 | 

A few values from above:
Value for UUGUAGCAAUAUUACGCUGC under self-splicing fitness (ln) (37 °C): -0.687 ± 0.59
Value for GGGAAGCAAUAUUACGAAAA under self-splicing fitness (ln) (37 °C): -3.41 ± 0.73
